Results deposited as PubChem BioAssay AID602196 (INSERM, 2012)

Test: 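Knock-downs that protect lung cancer cells from cisplatin or sensitise them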
Cells: human A549 lung cancer cells
Reagents: siRNA pair against human genes
Duration: 48 h transfection before cisplatin; time from cisplatin to read-out not stated
Treatment: cisplatin at a dose killing half of control-siRNA cells; exact dose and duration not given
Detection: 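Shift in cisplatin death relative to control siRNA, from -50 (all cells die) to +50 (no cells die); siRNAs harmful on their own scored 0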
Reading the numbers: two-siRNA summed score (-2 to +2): higher = both siRNAs protect from cisplatin killing; -2 means both sensitise; mean protection from cisplatin (shift in death) and protection from cisplatin (shift in death), siRNA C and protection from cisplatin (shift in death), siRNA D: higher = protection from cisplatin killing
Rule for the call: 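Each siRNA scores 0 if harmful alone by LDH or WST-1, otherwise +1 if it reduces and -1 if it increases cisplatin killing; a gene is active when both siRNAs agree (sum +2 or -2)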
Meaning of the calls: active = both siRNAs shift cisplatin killing the same way; inactive = no consistent shift, or siRNA harmful alone
The whole screen tested about 23,000 reagents; this is a random part of them. 455 of them (2%) were called active. 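Active includes both protection and sensitisation; some change values fall well beyond the stated -50 to +50 range.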 A number with no mark means an inactive call. The record does not give: the amount of reagent.

no.	target	two-siRNA summed score (-2 to +2)	mean protection from cisplatin (shift in death) (%)	protection from cisplatin (shift in death), siRNA C (%)	protection from cisplatin (shift in death), siRNA D (%)
1	MYEOV	0	1.4	7.9	-5.2
2	LINC00614	0	-2.4	0.1	-4.9
3	LOC401904	1	15.9	17.3	14.6
4	BAZ2A	-1	-12.2	-2.7	-21.7
5	LOC440990	0	25.4	27.8	23
6	LOC440870	0	9.2	9	9.4
7	URB1-DT	0	9.6	7.9	11.2
8	LOC440781	0	14.3	20.9	7.6
9	NSF	1	14.2	18.1	10.3
10	RCBTB2	0	-6.4	-9.1	-3.6
11	DNM1P44	1	19.5	25.2	13.8
12	LOC388689	-1	3.6	29.7	-22.4
13	LOC441651	0	17.3	22.3	12.3
14	LOC440764	0	7.5	0.4	14.6
15	VMA22	0	0.1	4.6	-4.5
16	ZC3H3	1	16.4	17	15.9
17	LOC440071	2 (active)	14.2	16.1	12.4
18	MMP14	-2 (active)	-28.5	-47.1	-9.9
19	HAGHL	0	7.1	2.1	12.2
20	HERC2	1	8.8	1.8	15.9
21	ADGRF2P	0	-9.6	-17.7	-1.6
22	IL6R	-1	-27.3	-19.3	-35.3
23	LOC441866	0	32.5	35.8	29.1

3 of these entries, reformatted:
{"target": "NSF", "two-siRNA summed score (-2 to +2)": 1, "mean protection from cisplatin (shift in death) (%)": 14.2, "protection from cisplatin (shift in death), siRNA C (%)": 18.1, "protection from cisplatin (shift in death), siRNA D (%)": 10.3}
{"target": "RCBTB2", "two-siRNA summed score (-2 to +2)": 0, "mean protection from cisplatin (shift in death) (%)": -6.4, "protection from cisplatin (shift in death), siRNA C (%)": -9.1, "protection from cisplatin (shift in death), siRNA D (%)": -3.6}
{"target": "DNM1P44", "two-siRNA summed score (-2 to +2)": 1, "mean protection from cisplatin (shift in death) (%)": 19.5, "protection from cisplatin (shift in death), siRNA C (%)": 25.2, "protection from cisplatin (shift in death), siRNA D (%)": 13.8}
